{"source": "patent US20240010694A1", "about": "“HYDROGELS CONTAINING AFFIBODIES AND USES THEREOF” (University of Oregon, priority 2022, published 2024)", "note": "No constants are given. Whether binding was seen depends on the method and setting. Some binding calls cover weakened binding; strength is not graded here."}
{"target": "T1, glial derived neurotrophic factor (GDNF) (UniProt P39905)", "T1 sequence (looked up)": "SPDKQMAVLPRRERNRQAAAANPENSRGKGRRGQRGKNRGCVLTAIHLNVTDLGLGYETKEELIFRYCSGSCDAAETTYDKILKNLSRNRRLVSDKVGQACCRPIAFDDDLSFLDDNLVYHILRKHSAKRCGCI", "assay": "yeast surface display selection (MACS, FACS) against GDNF"}
{"binder": "GDNF affibody A1 (designed binder) AEAKYNKEQVYASDSIQVLPNLTATQRVAFDPALHNDPSQSSELLSEAKKLNDSQAPK", "binding": "binds"}
{"binder": "GDNF affibody A2 (designed binder) AEAKYNKEKPNAVGEISVLPNLTEFQMVAFIFALVNDPSQSSELLSEAKKLNDSQAPK", "binding": "binds"}
{"binder": "GDNF affibody A3 (designed binder) AEAKYAKEWTTANYSIGVLPNLTLTQRYAFETALFDDPSQSSELLSEAKKLNDSQAPK", "binding": "binds"}
{"binder": "GDNF affibody B4 (designed binder) AEAKYTKERHDATLVIHVLPNLTDARILAFIVALSNDPSQSSELLSEAKKLNDSQAPK", "binding": "binds"}
{"binder": "GDNF affibody B7 (designed binder) AEAKYSKEWYDAYLVIFVLPNLTQFQRPAFPPALKNDPSQSSELLSEAKKLNDSQAPK", "binding": "binds"}
{"target": "granulocyte-macrophage colony-stimulating factor (GM-CSF) (UniProt P04141)", "assay": "yeast surface display selection (MACS, FACS) and flow cytometry"}
{"binder": "GM-CSF affibody GM3-C2 (designed binder) AEAKYNKEWYNAISVIFYLPNLTGFQRAAFVDALGDDPSQSSELLSEAKKLNDSQAPK", "binding": "binds"}
{"target": "vascular endothelial growth factor (VEGF) (UniProt P15692)", "assay": "yeast surface display selection (MACS, FACS); clones that exhibited binding to the target were sequenced"}
{"binder": "VEGF affibody L1 (designed binder) AEAKYYKEWNAAYVVINGLPNLTRRQREAFVHALVDDPSQSSELLSEAKKLNDSQAPK", "binding": "binds"}
{"binder": "VEGF affibody L3 (designed binder) AEAKYYKERYAANYSIWVLPNLTLLQRFAFFFALSNDPSQSSELLSEAKKLNDSQAPK", "binding": "binds"}
{"binder": "VEGF affibody L4 (designed binder) AEAKYAKELDDAFFEIASLPNLTGFQLHAFAVALGNDPSQSSELLSEAKKLNDSQAPK", "binding": "binds"}
{"binder": "VEGF affibody L5 (designed binder) AEAKYNKERDSAYSVIWGLPNLTDSQKAAFGYALYNDPSQSSELLSEAKKLNDSQAPK", "binding": "binds"}
{"binder": "VEGF affibody L7 (designed binder) AEAKYAKELEAANMVIVDLPNLTHGQKVAFLVALFNDPSQSSELLSEAKKLNDSQAPK", "binding": "binds"}
{"binder": "VEGF affibody L8 (designed binder) AEAKYNKEWYDAILEIGFLPNLTGHQRDAFSDALVDDPSQSSELLSEAKKLNDSQAPK", "binding": "binds"}
{"binder": "VEGF affibody BM2 (designed binder) AEAKYAKEWFYAYHVIYDLPNLTGFQKHAFYLALYDDPSQSSELLSEAKKLNDSQAPK", "binding": "binds"}
{"binder": "VEGF affibody BM7 (designed binder) AEAKYAKEGATAFGSIPYLPNLTDVQRYAFIVALLDDPSQSSELLSEAKKLNDSQAPK", "binding": "binds"}
{"binder": "VEGF affibody BR1 (designed binder) AEAKYTKEWYAAVVQIGYLPNLTAFQRAAFSFALSNDPSQSSELLSEAKKLNDSQAPK", "binding": "binds"}
{"binder": "VEGF affibody BR3 (designed binder) AEAKYTKERDDASLEIAYLPNLTPYQLMAFFFALSNDPSQSSELLSEAKKLNDSQAPK", "binding": "binds"}
{"binder": "VEGF affibody BR6 (designed binder) AEAKYAKEWEDAINEIWCLPNLTEYQRIAFVSALYNDPSQSSELLSEAKKLNDSQAPK", "binding": "binds"}
{"binder": "VEGF affibody BR7 (designed binder) AEAKYAKELLNAFDEIYGLPNLTVGQRMAFCDALINDPSQSSELLSEAKKLNDSQAPK", "binding": "binds"}
{"binder": "VEGF affibody TM4 (designed binder) AEAKYYKEWYDAFVVIDALPNLTAYQREAFIFALVNDPSQSSELLSEAKKLNDSQAPK", "binding": "binds"}
{"binder": "VEGF affibody TM6 (designed binder) AEAKYYKEWVDAYLVIDSLPNLTRLQVEAFVFALVNDPSQSSELLSEAKKLNDSQAPK", "binding": "binds"}
{"binder": "VEGF affibody TM7 (designed binder) AEAKYTKEVDYAACVIAYLPNLTGVQVYAFYRALADDPSQSSELLSEAKKLNDSQAPK", "binding": "binds"}
{"target": "fibroblast growth factor 2 (FGF-2) (UniProt P09038)", "assay": "yeast surface display selection (MACS, FACS); clones that exhibited binding to the target were sequenced"}
{"binder": "FGF-2 affibody FG1_C1 (designed binder) AEAKYTKEGCDAYTEIVDLPNLTGYQRRAFYWALENDPSQSSELLSEAKKLNDSQAPK", "binding": "binds"}
{"binder": "FGF-2 affibody FG1_C2 (designed binder) AEAKYNKEMPDANCQIAFLPNLTQYQVPAFIYALCNDPSQSSELLSEAKKLNDSQAPK", "binding": "binds"}
{"binder": "FGF-2 affibody FG1_C3 (designed binder) AEAKYNKEGEDATTQIGSLPNLTQAQKHAFAVALGNDPSQSSELLSEAKKLNDSQAPK", "binding": "binds"}
{"binder": "FGF-2 affibody FG1_C4 (designed binder) AEAKYSKEGFYADWVIPVLPNLTRKQRVAFHDALHNDPSQSSELLSEAKKLNDSQAPK", "binding": "binds"}
{"binder": "FGF-2 affibody FG2-C3 (designed binder) AEAKYAKEWLDAIDVIGYLPNLTDFQRGAFYDALNDDPSQSSELLSEAKKLNDSQAPK", "binding": "binds"}
{"binder": "FGF-2 affibody FG3_C2 (designed binder) AEAKYYKEGYNAIVEIRCLPNLTDCQVAAFIDALDDDPSQSSELLSEAKKLNDSQAPK", "binding": "binds"}
{"binder": "FGF-2 affibody FG3-C3 (designed binder) AEAKYAKELDAAYVVIYFLPNLTHCQMVAFLHALSDDPSQSSELLSEAKKLNDSQAPK", "binding": "binds"}
{"binder": "FGF-2 affibody FG4-C1 (designed binder) AEAKYSKEVYSAYDVIFALPNLTQYQVLAFFDALCDDPSQSSELLSEAKKLNDSQAPK", "binding": "binds"}
{"binder": "FGF-2 affibody FG4-C2 (designed binder) AEAKYAKERLTAVCSIVALPNLTEGQMVAFDDALHDDPSQSSELLSEAKKLNDSQAPK", "binding": "binds"}
{"binder": "FGF-2 affibody FG4-C3 (designed binder) AEAKYAKEGFNAVNVIWPLPNLTADQVCAFICALADDPSQSSELLSEAKKLNDSQAPK", "binding": "binds"}
{"binder": "FGF-2 affibody FG4-C4 (designed binder) AEAKYAKEGCTAFLEIAALPNLTGYQRDAFIEALFDDPSQSSELLSEAKKLNDSQAPK", "binding": "binds"}
{"target": "interleukin-4 (IL-4) (UniProt P05112)", "assay": "yeast surface display selection (MACS, FACS); clones that exhibited binding to the target were sequenced"}
{"binder": "IL-4 affibody G3H-C10 (designed binder) AEAKYSKEQSNAYASITDLPNLTRLQKLAFWVALFNDPSQSSELLSEAKKLNDSQAPK", "binding": "binds"}
{"binder": "IL-4 affibody AD_189 (designed binder) AERKYHWELLVAFMEIQSLPNLTKDQITQFMAALEDDPSQSSELLSEAKKLNDSQAPK", "binding": "binds"}
{"target": "platelet-derived growth factor (PDGF) (UniProt P01127)", "assay": "yeast surface display selection (MACS, FACS); clones that exhibited binding to the target were sequenced"}
{"binder": "PDGF affibody BR6 (designed binder) AEAKYYKEWDSASDSIGFLPNLTRAQMVAFFAALFNDPSQSSELLSEAKKLNDSQAPK", "binding": "binds"}
